Laboratory results reported in PMC7528131.
No constants are given. Whether binding was seen depends on the method and setting. In cells and extracts the contact can be indirect. Some results given as binding are weak or reduced against the parent protein; the word gives no strength.

Sequences of proteins named here, by UniProt entry; tags and fusion partners are left off. Residues count along the entry.
UniProt P58390, residues 266-839: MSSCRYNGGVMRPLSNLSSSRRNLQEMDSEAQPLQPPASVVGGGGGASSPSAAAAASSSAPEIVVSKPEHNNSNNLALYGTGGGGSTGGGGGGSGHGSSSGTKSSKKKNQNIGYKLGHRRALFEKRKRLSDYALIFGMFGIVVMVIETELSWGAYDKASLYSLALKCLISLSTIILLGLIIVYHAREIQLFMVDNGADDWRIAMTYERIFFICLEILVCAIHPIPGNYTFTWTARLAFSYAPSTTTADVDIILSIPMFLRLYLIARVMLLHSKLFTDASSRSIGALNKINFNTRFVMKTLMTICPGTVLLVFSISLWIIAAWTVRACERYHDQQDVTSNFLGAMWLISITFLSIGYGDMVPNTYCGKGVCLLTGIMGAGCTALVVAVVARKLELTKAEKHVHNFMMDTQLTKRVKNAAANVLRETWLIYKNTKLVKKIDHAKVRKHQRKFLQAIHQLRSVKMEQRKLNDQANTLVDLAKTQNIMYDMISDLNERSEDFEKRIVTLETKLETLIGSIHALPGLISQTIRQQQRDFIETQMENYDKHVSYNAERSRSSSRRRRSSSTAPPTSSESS

Biological target: small-conductance calcium-activated potassium channel subtype 2 (SK2) (mouse (endogenous in spinal cord)) (UniProt P58390)
Test: co-IP; mouse spinal cord lysate supernatant incubated with anti-SK2 for 30 min, then protein A/G agarose beads overnight at 4°C; beads rinsed three times; eluate blotted with anti-MPP2; IgG as control

B1: membrane palmitoylated protein 2 (MPP2) (protein, UniProt Q9WV34 1-552)
chain: MPVAATNSESAMQQVLDNLGSLPNATGAAELDLIFLRGIMESPIVRSLAKAHERLEETKLEAVRDNNLELVQEILRDLAELAEQSSTAAELARILQEPHFQSLLETHDSVASKTYETPPPSPGLDPTFSNQPVPPDAVRMVGIRKTAGEHLGVTFRVEGGELVIARILHGGMVAQQGLLHVGDIIKEVNGQPVGSDPRALQELLRSASGSVILKILPSYQEPHLPRQVFVKCHFDYDPARDSLSPCKEAGLRFNAGDLLQIVNQDDANWWQACHVEGGSAGLIPSQLLEEKRKAFVKRDLELTPTSGTLCGSLSGKKKKRMMYLTTKNAEFDRHELLIYEEVARMPPFRRKTLVLIGAQGVGRRSLKNKLILWDPDRYGTTVPYTSRRPKDSEREGQGYSFVSRGEMEADIRAGRYLEHGEYEGNLYGTRIDSIRGVVASGKVCVLDVNPQAVKVLRTAEFVPYVVFIEAPDYETLRAMNRAALESGVSTKQLTEADLRRTVEESSRIQRGYGHYFDLSLVNSNLERTFRELQTAMEKLRTEPQWVPVSWVY
  binding: binds
